# Test results from publication PMC7926923, “Identification of Active Site Residues of the Siderophore Synthesis Enzyme PvdF and Evidence for Interaction of PvdF with a Substrate-Providing Enzyme” (International Journal of Molecular Sciences, 2021).
# No constants are given. Whether binding was seen depends on the method and setting. In cells and extracts the contact can be indirect. For some assays here: A result given as binding can be weak or reduced; the word gives no strength. Where a sequence is shown, tags or fusion partners need not be part of it.
# Key:
# PvdFHis6 (P. aeruginosa) = test: pull-down
# His6PvdF (P. aeruginosa) = test: pull-down
binder,measurement,setting,value
"PvdA (untagged) (enzyme, UniProt Q51548 1-443) MTQATATAVVHDLIGVGFGPSNIALAIALQERAQAQGALEVLFLDKQGDYRWHGNTLVSQSELQISFLKDLVSLRNPTSPYSFVNYLHKHDRLVDFINLGTFYPCRMEFNDYLRWVASHFQEQSRYGEEVLRIEPMLSAGQVEALRVISRNADGEELVRTTRALVVSPGGTPRIPQVFRALKGDGRVFHHSQYLEHMAKQPCSSGKPMKIAIIGGGQSAAEAFIDLNDSYPSVQADMILRASALKPADDSPFVNEVFAPKFTDLIYSREHAERERLLREYHNTNYSVVDTDLIERIYGVFYRQKVSGIPRHAFRCMTTVERATATAQGIELALRDAGSGELSVETYDAVILATGYERQLHRQLLEPLAEYLGDHEIGRDYRLQTDERCKVAIYAQGFSQASHGLSDTLLSVLPVRAEEISGSLYQHLKPGTAARALHEHALAS",binding,PvdFHis6 (P. aeruginosa),binds
same,binding,His6PvdF (P. aeruginosa),no binding
